PubChem BioAssay AID504764, Drosophila RNAi Screening Center, 2011
The screen tested about 22,000 reagents; shown is a random part of those that have a named target and a result. Over the whole deposit, 403 (1.9%) are marked active. 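Unnormalised raw counts per well; ratio z-scores behind the hit calls and whether each hit raises or lowers signal are not deposited.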 Entries without a mark were called inactive. The numbers tell different reagents against one gene apart. Not given: the amount of reagent.

- Screen: 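Genome-wide screen for regulators of Notch-driven gene expression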 (primary screen)
- System: Drosophila Kc167 cells
- Knock-down reagent: long dsRNA against Drosophila genes
- Timing: about 5 days (4 days dsRNA, then 24 h after transfection)
- Treatment: transfection of constitutively active membrane-tethered Notch lacking the extracellular domain, read 24 h later
- Read-out: 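Light from a Notch-responsive E(spl)m3 luciferase reporter under active Notch, with control-promoter and no-Notch reporter wells to normalise; raw counts from paired wells a and b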
- Scale: induced reporter light, run 1, well a and induced reporter light, run 1, well b: higher = more light from the Notch target reporter with active Notch; control promoter light, run 1, well a and control promoter light, run 1, well b: higher = more light from the viral control promoter (cell number, transfection, viability); uninduced reporter light, run 1, well a: higher = more light from the Notch target reporter without active Notch
- Hit rule: 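Wells with low control signal or poorly matching duplicates excluded; duplicates averaged; per source plate, z beyond ±2 for induced/control log2 ratio or beyond ±1.8 for induced/uninduced marks a hit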
- Meaning of the calls: active = modifier hit (raised or lowered Notch signal); inactive = not a hit

predicted target	reagent	induced reporter light, run 1, well a	induced reporter light, run 1, well b	control promoter light, run 1, well a	control promoter light, run 1, well b	uninduced reporter light, run 1, well a
CCT2 (Chaperonin containing TCP1 subunit 2)	1	80805	73140	1.05e5	87215	7082
narya	1	1.26e5	1.45e5	1.01e5	69785	9410
CG12679	1	83930	1.25e5	1.22e5	1.08e5	11040
haf (hattifattener)	1	1.70e5	1.62e5	1.03e5	55510	10250
dati (datilografo)	1	1.58e5	1.64e5	2.18e5	2.15e5	12150
dati (datilografo)	2	85170	1.02e5	1.31e5	1.39e5	6500
CROT (Carnitine O-octanoyltransferase)	1	1.62e5	1.35e5	1.94e5	1.94e5	12535
CROT (Carnitine O-octanoyltransferase)	2	1.25e5	1.23e5	1.52e5	1.36e5	11610
CG9896	1	69635	83880	72990	72165	6570
CG9896	2	1.42e5	1.42e5	1.55e5	1.57e5	10390
sNPF (short neuropeptide F precursor)	1	41345	34260	47030	31280	3020
CG42591	1	2.46e5	2.64e5	3.17e5	3.51e5	15420
Actn (alpha actinin)	1	1.64e5	1.94e5	2.27e5	2.38e5	13390
CG1552	1	1.30e5	1.35e5	2.11e5	2.02e5	9710
CG7166	1	1.28e5	1.21e5	1.21e5	1.19e5	9200
Pino (Pinocchio)	1	3225	3990	2988	2890	2450
Pino (Pinocchio)	2	1.74e5	2.07e5	1.90e5	1.86e5	13305
COX5A (Cytochrome c oxidase subunit 5A)	1	90680	1.01e5	1.02e5	86385	9440
CG31050	1	1.70e5	1.59e5	1.73e5	1.64e5	12315
Ac13E (Adenylyl cyclase 13E)	1	1.00e5	1.08e5	1.49e5	1.33e5	17270
raskol	1	99360	85370	82690	1.09e5	6345
raskol	2	72625	85760	84005	84160	11155
raskol	3	94110	64370	83175	87725	9550
raskol	4	2710	2370	3065	2815	2200
Dph4 (Diphthamide biosynthesis 4)	1	85560	1.13e5	1.15e5	1.01e5	9330
Sema1b (Semaphorin 1b)	1	1.01e5	1.16e5	2.00e5	1.98e5	9025
CG32638	1	84130	62780	67090	63810	5485
ATPsynO (ATP synthase, oligomycin sensitivity conferring protein)	1	95505	82980	73425	66565	6415
CG32445	1	16615	11820	17180	16310	1120
CG8646	1	89130	89695	1.59e5	1.05e5	10600
CG12567	1	82675	71275	80665	79045	8430
NaPi-T (Na[+]-dependent inorganic phosphate cotransporter)	1	84100	91650	1.29e5	1.35e5	8920
CG30110	1	1.00e5	1.18e5	1.20e5	1.10e5	8925
mRpL48 (mitochondrial ribosomal protein L48)	1	1.53e5	1.40e5	1.43e5	1.06e5	9015

Already shown: an excerpt of the list.
predicted target	reagent	induced reporter light, run 1, well a	induced reporter light, run 1, well b	control promoter light, run 1, well a	control promoter light, run 1, well b	uninduced reporter light, run 1, well a
sNPF (short neuropeptide F precursor)	1	41345	34260	47030	31280	3020
CG42591	1	2.46e5	2.64e5	3.17e5	3.51e5	15420
Actn (alpha actinin)	1	1.64e5	1.94e5	2.27e5	2.38e5	13390
CG1552	1	1.30e5	1.35e5	2.11e5	2.02e5	9710
CG7166	1	1.28e5	1.21e5	1.21e5	1.19e5	9200
